Laboratory results reported in paper PMC3204985.
Substitutions are numbered along the chain they refer to. These are yes or no findings as the source states them, for the method shown. Binding calls can cover weak binding; strength is not graded here. Where a sequence is shown, tags or fusion partners need not be part of it.

Sequences of proteins named here, by UniProt entry; tags and fusion partners are left off. A change or cut given only in a name is not applied to a line headed by its entry.
UniProt P38798: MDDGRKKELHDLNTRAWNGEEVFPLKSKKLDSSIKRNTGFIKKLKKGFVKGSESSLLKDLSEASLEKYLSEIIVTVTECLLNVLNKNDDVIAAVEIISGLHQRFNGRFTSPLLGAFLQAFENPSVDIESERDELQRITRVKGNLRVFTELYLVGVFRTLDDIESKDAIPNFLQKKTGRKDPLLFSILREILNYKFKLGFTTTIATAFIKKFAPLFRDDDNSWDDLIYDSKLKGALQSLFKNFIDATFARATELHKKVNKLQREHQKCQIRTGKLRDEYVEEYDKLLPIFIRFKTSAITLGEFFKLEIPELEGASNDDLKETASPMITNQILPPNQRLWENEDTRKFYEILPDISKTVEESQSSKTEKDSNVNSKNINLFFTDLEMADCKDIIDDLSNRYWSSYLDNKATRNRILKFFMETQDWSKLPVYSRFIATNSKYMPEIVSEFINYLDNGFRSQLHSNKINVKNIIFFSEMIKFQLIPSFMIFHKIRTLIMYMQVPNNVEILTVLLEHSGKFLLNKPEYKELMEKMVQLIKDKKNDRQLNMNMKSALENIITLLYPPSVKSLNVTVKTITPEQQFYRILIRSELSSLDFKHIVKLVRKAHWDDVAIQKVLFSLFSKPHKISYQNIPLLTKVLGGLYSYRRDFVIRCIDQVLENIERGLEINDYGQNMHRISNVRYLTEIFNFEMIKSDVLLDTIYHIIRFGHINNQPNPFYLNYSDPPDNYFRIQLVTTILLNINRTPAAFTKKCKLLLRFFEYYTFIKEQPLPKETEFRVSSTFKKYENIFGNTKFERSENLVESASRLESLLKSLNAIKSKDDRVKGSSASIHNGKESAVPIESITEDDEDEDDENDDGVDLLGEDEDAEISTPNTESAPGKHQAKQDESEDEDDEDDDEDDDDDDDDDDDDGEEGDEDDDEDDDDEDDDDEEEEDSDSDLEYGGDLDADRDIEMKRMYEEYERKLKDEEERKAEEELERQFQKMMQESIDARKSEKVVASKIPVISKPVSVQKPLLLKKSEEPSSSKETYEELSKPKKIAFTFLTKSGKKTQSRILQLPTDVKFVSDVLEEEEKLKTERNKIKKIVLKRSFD

Experiments:
[1] = target: T1, BD-Upf1 N-terminus (1–230) (S. cerevisiae) (UniProt P30771); assay: two-hybrid; yeast two-hybrid, β-galactosidase plate assay; one haploid strain transformed with both the AD and BD plasmids; deletion strains yRP2834 (edc3Δ), yRP2835 (upf2Δ), yRP2836 (pat1Δ)
T1 sequence: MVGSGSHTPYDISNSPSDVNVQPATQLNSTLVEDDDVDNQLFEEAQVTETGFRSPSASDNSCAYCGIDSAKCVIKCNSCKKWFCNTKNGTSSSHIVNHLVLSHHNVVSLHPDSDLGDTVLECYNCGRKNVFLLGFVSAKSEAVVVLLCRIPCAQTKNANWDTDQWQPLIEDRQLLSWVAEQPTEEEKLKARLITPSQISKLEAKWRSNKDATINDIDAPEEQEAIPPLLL

[2] = target: T2, BD-Upf1 Mutant 18: P111A D112A D114A D117A (S. cerevisiae) (UniProt P30771); assay: two-hybrid; yeast two-hybrid, β-galactosidase plate assay; AD and BD fusions; for the point mutants: mating of MATa (yRP2094) and MATα (yRP2093) strains and selection of diploids on drop-out media
T2 sequence: T1 sequence with P111A, D112A, D114A, D117A

[3] = target: T3, BD-Upf1 Mutant 23: L115A Y123A (S. cerevisiae) (UniProt P30771); assay: as above
T3 sequence: T1 sequence with L115A, Y123A

[4] = target: T4, BD-Upf1 Mutant 24: W177A (S. cerevisiae) (UniProt P30771); assay: as above
T4 sequence: T1 sequence with W177A

[5] = target: T5, BD-Upf1 Mutant 3: Q166A E170A L175A W177A (S. cerevisiae) (UniProt P30771); assay: as above
T5 sequence: T1 sequence with Q166A, E170A, L175A, W177A

[6] = target: T1, BD-Upf1 N-terminus (1–230) (S. cerevisiae); assay: as above

Measured: binding

AD-Upf2 C-terminus (Ct 157 AA) (from UniProt P38798) (domain or fragment)
binds: all assays above
